Consider one substance from article doi:10.1101/2024.06.23.600301.

By UniProt entry, the sequences of proteins in these tests, tags left out. Residues count along the entry.
UniProt P32781, residues 19-87: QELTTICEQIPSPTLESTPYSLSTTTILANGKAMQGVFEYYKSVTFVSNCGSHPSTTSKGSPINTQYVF

The target in this test is T1, Sag1 (S. cerevisiae) (UniProt P20840).
T1 sequence: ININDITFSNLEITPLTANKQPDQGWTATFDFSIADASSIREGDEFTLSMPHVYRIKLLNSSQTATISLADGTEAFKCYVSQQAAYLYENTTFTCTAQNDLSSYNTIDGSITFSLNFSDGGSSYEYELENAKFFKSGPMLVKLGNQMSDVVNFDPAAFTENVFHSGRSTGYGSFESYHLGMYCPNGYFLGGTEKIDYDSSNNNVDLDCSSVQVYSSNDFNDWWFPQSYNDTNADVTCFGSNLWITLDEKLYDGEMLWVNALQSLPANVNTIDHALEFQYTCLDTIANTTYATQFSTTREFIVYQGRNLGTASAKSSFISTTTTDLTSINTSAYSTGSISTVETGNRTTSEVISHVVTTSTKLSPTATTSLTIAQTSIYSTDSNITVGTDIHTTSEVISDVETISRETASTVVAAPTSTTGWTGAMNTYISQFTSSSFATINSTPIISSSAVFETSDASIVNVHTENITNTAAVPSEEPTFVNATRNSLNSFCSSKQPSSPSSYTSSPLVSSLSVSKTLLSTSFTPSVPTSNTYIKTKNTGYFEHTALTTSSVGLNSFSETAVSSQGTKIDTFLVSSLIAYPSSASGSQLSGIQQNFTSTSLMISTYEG
The test can be described thus: two-colour cell-cell adhesion assay.

These are yes or no findings as the source states them, for the method shown. Some entries that bind do so weakly or less than the wild type.

As to Aga2 (from UniProt P32781 19-87), the binding entry was “binds”.
